Measurements as given in patent US9045505B2, “Nitric oxide donors” (University of Otago, priority 2006, dated 2015).
Some of these results come from one statement about several compounds together.

Experiment: Decomposition of the SNO moiety by light
Assay type: physicochemical
Conditions: exposed to light for 2 h

Work on `CC(=O)NC(C(=O)O)C(C)(C)SN=O` (racemic) [SNAP, S-nitroso-N-acetyl-DL-penicillamine, reference compound] yielded an SNO degradation greater than 90%.
Compound `CC(=O)NC(C(=O)NCCCCC[P+](c1ccccc1)(c1ccccc1)c1ccccc1)C(C)(C)SN=O.CS(=O)(=O)[O-]` (centres unmarked) [MitoSNAP, [5-(2-acetylamino-3-methyl-3-nitrosothio-butyrylamino)-penty1]-triphenylphosphonium methanesulfonate] has an SNO degradation greater than 90%.
